# From the supplement of paper PMC8728848
# The list shows a part of the results.
# B1: CBP21 (Serratia marcescens), O83009 (protein)
# chain: MNKTSRTLLSLGLLSAAMFGVSQQANAHGYVESPASRAYQCKLQLNTQCGSVQAEPQSVEGLKGFPQAGPADGHIASADKSTFFELDQQTPTRWNKLNLKTGPNSFTWKLTARHSTTSWRYFITKPNWDASQPLTRASFDLTPFCQFNDGGAIPAAQVTHQCNIPADRSGSHVILAVWDIADTANAFYQAIDVNLSK
# Legend:
# Experiment in all cases: glycan array binding signal (z-score within array); higher = stronger binding
# Settings in all cases: glycan notation: IUPAC condensed, linker removed; mutation: Y54A
# [1] = molecular target: Man(a1-2)Man(a1-3)[Man(a1-2)Man(a1-6)]Man
# Procedure, shortened: (§1)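 Negative Z-scores can be read as non-binding. The Z-score is calculated within each array and then averaged across arrays of one protein sequence at different concentrations or buffers and across linkers. Arrays, 3228 in all, were curated from the Consortium for Functional Glycomics database and kept only where the protein sequence was available.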
# [2] = molecular target: Man(a1-2)Man(a1-3)[Man(a1-2)Man(a1-6)]Man(a1-6)[Man(a1-2)Man(a1-2)Man(a1-3)]Man
# Procedure, shortened: as §1
# [3] = molecular target: Man(a1-2)Man(a1-3)[Man(a1-2)Man(a1-6)]Man(a1-6)[Man(a1-2)Man(a1-2)Man(a1-3)]Man(b1-4)GlcNAc(b1-4)GlcNAc
# Procedure, shortened: as §1
# [4] = molecular target: Man(a1-2)Man(a1-3)[Man(a1-6)]Man(a1-6)[Man(a1-2)Man(a1-3)]Man(b1-4)GlcNAc(b1-4)GlcNAc
# Procedure, shortened: as §1
# [5] = molecular target: Man(a1-2)Man(a1-6)[Man(a1-3)]Man(a1-6)[Man(a1-2)Man(a1-2)Man(a1-3)]Man
# Procedure, shortened: as §1
# [6] = molecular target: Man(a1-2)Man(a1-6)[Man(a1-3)]Man(a1-6)[Man(a1-2)Man(a1-2)Man(a1-3)]Man(b1-4)GlcNAc(b1-4)GlcNAc
# Procedure, shortened: as §1
# Man(a1-3)[Man(a1-6)]Man = molecular target: Man(a1-3)[Man(a1-6)]Man
# Procedure, shortened: as §1
# [7] = molecular target: Man(a1-3)[Man(a1-6)]Man(a1-6)[Man(a1-2)Man(a1-3)]Man(b1-4)GlcNAc(b1-4)GlcNAc
# Procedure, shortened: as §1
# [8] = molecular target: Man(a1-3)[Man(a1-6)]Man(a1-6)[Man(a1-3)]Man
# Procedure, shortened: as §1
# [9] = molecular target: Man(a1-3)[Man(a1-6)]Man(a1-6)[Man(a1-3)]Man(b1-4)GlcNAc(b1-4)GlcNAc
# Procedure, shortened: as §1
# [10] = molecular target: Man(a1-3)[Man(a1-6)]Man(b1-4)GlcNAc(b1-4)GlcNAc
# Procedure, shortened: as §1
# [11] = molecular target: Man(a1-3)[Man(a1-6)]Man(b1-4)GlcNAc(b1-4)[Fuc(a1-6)]GlcNAc
# Procedure, shortened: as §1
# Man(a1-6)Man = molecular target: Man(a1-6)Man
# Procedure, shortened: as §1
# Man(b1-4)GlcNAc = molecular target: Man(b1-4)GlcNAc
# Procedure, shortened: as §1
# MurNAc(b1-4)GlcNAc = molecular target: MurNAc(b1-4)GlcNAc
# Procedure, shortened: as §1
# Neu5Ac(a2-3)Gal = molecular target: Neu5Ac(a2-3)Gal
# Procedure, shortened: as §1
# [12] = molecular target: Neu5Ac(a2-3)Gal(b1-3)GalNAc
# Procedure, shortened: as §1
# [13] = molecular target: Neu5Ac(a2-3)Gal(b1-3)GalNAc(b1-3)Gal(a1-4)Gal(b1-4)Glc
# Procedure, shortened: as §1
# [14] = molecular target: Neu5Ac(a2-3)Gal(b1-3)GalNAc(b1-4)Gal(b1-4)Glc
# Procedure, shortened: as §1
# [15] = molecular target: Neu5Ac(a2-3)Gal(b1-3)GalNAc(b1-4)[Neu5Ac(a2-3)]Gal(b1-4)Glc
# Procedure, shortened: as §1
# [16] = molecular target: Neu5Ac(a2-3)Gal(b1-3)GalNAc(b1-4)[Neu5Ac(a2-8)Neu5Ac(a2-3)]Gal(b1-4)Glc
# Procedure, shortened: as §1
# [17] = molecular target: Neu5Ac(a2-3)Gal(b1-3)GalNAc6S
# Procedure, shortened: as §1
# [18] = molecular target: Neu5Ac(a2-3)Gal(b1-3)GlcNAc
# Procedure, shortened: as §1
# [19] = molecular target: Neu5Ac(a2-3)Gal(b1-3)GlcNAc(b1-2)Man
# Procedure, shortened: as §1
# [20] = molecular target: Neu5Ac(a2-3)Gal(b1-3)GlcNAc(b1-2)Man(a1-3)[GlcNAc(b1-4)][Neu5Ac(a2-3)Gal(b1-3)GlcNAc(b1-2)Man(a1-6)]Man(b1-4)GlcNAc(b1-4)GlcNAc
# Procedure, shortened: as §1
# [21] = molecular target: Neu5Ac(a2-3)Gal(b1-3)GlcNAc(b1-2)Man(a1-3)[Neu5Ac(a2-3)Gal(b1-3)GlcNAc(b1-2)Man(a1-6)]Man(b1-4)GlcNAc(b1-4)GlcNAc
# Procedure, shortened: as §1
# [22] = molecular target: Neu5Ac(a2-3)Gal(b1-3)GlcNAc(b1-2)[Neu5Ac(a2-3)Gal(b1-3)GlcNAc(b1-4)]Man(a1-6)[Neu5Ac(a2-3)Gal(b1-3)GlcNAc(b1-2)Man(a1-3)]Man(b1-4)GlcNAc(b1-4)GlcNAc
# Procedure, shortened: as §1
# [23] = molecular target: Neu5Ac(a2-3)Gal(b1-3)GlcNAc(b1-3)Gal(b1-3)GlcNAc
# Procedure, shortened: as §1
# [24] = molecular target: Neu5Ac(a2-3)Gal(b1-3)GlcNAc(b1-3)Gal(b1-4)GlcNAc
# Procedure, shortened: as §1
# [25] = molecular target: Neu5Ac(a2-3)Gal(b1-3)GlcNAc(b1-3)GalNAc
# Procedure, shortened: as §1
# [26] = molecular target: Neu5Ac(a2-3)Gal(b1-3)GlcNAc(b1-6)GalNAc
# Procedure, shortened: as §1
# [27] = molecular target: Neu5Ac(a2-3)Gal(b1-3)GlcNAc6S
# Procedure, shortened: as §1
# [28] = molecular target: Neu5Ac(a2-3)Gal(b1-3)[Fuc(a1-4)]GlcNAc
# Procedure, shortened: as §1
# [29] = molecular target: Neu5Ac(a2-3)Gal(b1-3)[Fuc(a1-4)]GlcNAc(b1-3)Gal(b1-3)[Fuc(a1-4)]GlcNAc
# Procedure, shortened: as §1
# [30] = molecular target: Neu5Ac(a2-3)Gal(b1-3)[Fuc(a1-4)]GlcNAc(b1-3)Gal(b1-4)[Fuc(a1-3)]GlcNAc
# Procedure, shortened: as §1
# [31] = molecular target: Neu5Ac(a2-3)Gal(b1-3)[GlcNAc(b1-6)]GalNAc
# Procedure, shortened: as §1
# [32] = molecular target: Neu5Ac(a2-3)Gal(b1-3)[Neu5Ac(a2-6)]GalNAc
# Procedure, shortened: as §1
# [33] = molecular target: Neu5Ac(a2-3)Gal(b1-3)[Neu5Ac(a2-6)]GlcNAc(b1-3)[Fuc(a1-3)[Gal(b1-4)]GlcNAc(b1-6)]Gal(b1-4)Glc
# Procedure, shortened: as §1
binder,measurement,setting,value
B1,glycan array binding signal (z-score),[1],-0.063
same,glycan array binding signal (z-score),[2],-0.091
same,glycan array binding signal (z-score),[3],-1.58
same,glycan array binding signal (z-score),[4],-0.23
same,glycan array binding signal (z-score),[5],-0.748
same,glycan array binding signal (z-score),[6],-1.28
same,glycan array binding signal (z-score),Man(a1-3)[Man(a1-6)]Man,-0.045
same,glycan array binding signal (z-score),[7],0.228
same,glycan array binding signal (z-score),[8],-0.531
same,glycan array binding signal (z-score),[9],-1.08
same,glycan array binding signal (z-score),[10],0.015
same,glycan array binding signal (z-score),[11],0.113
same,glycan array binding signal (z-score),Man(a1-6)Man,-0.224
same,glycan array binding signal (z-score),Man(b1-4)GlcNAc,-0.727
same,glycan array binding signal (z-score),MurNAc(b1-4)GlcNAc,-0.161
same,glycan array binding signal (z-score),Neu5Ac(a2-3)Gal,-0.008
same,glycan array binding signal (z-score),[12],-0.502
same,glycan array binding signal (z-score),[13],-0.583
same,glycan array binding signal (z-score),[14],-0.205
same,glycan array binding signal (z-score),[15],-0.465
same,glycan array binding signal (z-score),[16],-0.853
same,glycan array binding signal (z-score),[17],5.86
same,glycan array binding signal (z-score),[18],-0.515
same,glycan array binding signal (z-score),[19],-0.435
same,glycan array binding signal (z-score),[20],-0.043
same,glycan array binding signal (z-score),[21],-0.307
same,glycan array binding signal (z-score),[22],5.4
same,glycan array binding signal (z-score),[23],-0.488
same,glycan array binding signal (z-score),[24],1.79
same,glycan array binding signal (z-score),[25],-0.088
same,glycan array binding signal (z-score),[26],0.054
same,glycan array binding signal (z-score),[27],-0.121
same,glycan array binding signal (z-score),[28],-0.078
same,glycan array binding signal (z-score),[29],-0.29
same,glycan array binding signal (z-score),[30],0.202
same,glycan array binding signal (z-score),[31],-0.865
same,glycan array binding signal (z-score),[32],3.97
same,glycan array binding signal (z-score),[33],-0.764

# Random excerpt: 2 entries already listed.
binder,measurement,setting,value
B1,glycan array binding signal (z-score),[22],5.4
same,glycan array binding signal (z-score),[27],-0.121
